No constants are given. Whether binding was seen depends on the method and setting. Some results given as binding are weak or reduced against the parent protein; the word gives no strength.
Key:
human PCSK9 [1] = target: T1, human PCSK9 (human, UniProt Q8NBP7 31-692); test: PCSK9:EGFA FRET assay, 5 nM PCSK9; displaced ligand: EGFA peptide
human PCSK9 [2] = target: T1, human PCSK9; test: PCSK9:ATI-972 FRET assay, 5 nM human PCSK9; displaced competitor: biotinylated ATI-972

Amino acid sequences for entries named in this document (tags omitted). Residues count along the entry.
UniProt Q8NBP7, residues 31-692: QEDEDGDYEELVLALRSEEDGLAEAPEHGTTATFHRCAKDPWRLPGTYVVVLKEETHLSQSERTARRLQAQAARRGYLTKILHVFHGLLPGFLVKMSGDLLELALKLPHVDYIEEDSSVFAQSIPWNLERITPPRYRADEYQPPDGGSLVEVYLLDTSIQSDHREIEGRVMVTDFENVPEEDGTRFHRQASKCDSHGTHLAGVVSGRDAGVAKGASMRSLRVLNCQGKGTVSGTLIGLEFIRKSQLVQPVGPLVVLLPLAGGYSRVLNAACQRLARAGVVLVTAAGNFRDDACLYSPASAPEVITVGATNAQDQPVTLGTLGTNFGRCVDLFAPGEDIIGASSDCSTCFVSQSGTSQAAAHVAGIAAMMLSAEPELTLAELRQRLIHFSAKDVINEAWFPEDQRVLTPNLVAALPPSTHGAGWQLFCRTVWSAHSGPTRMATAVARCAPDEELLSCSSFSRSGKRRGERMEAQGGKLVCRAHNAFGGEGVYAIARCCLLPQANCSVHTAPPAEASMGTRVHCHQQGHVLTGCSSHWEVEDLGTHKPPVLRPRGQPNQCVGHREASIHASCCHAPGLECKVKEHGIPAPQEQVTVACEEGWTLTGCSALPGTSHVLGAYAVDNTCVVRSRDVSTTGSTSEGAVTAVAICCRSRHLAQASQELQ

B1: ATI-1174 (designed binder)
chain: MGVSDVPRDLEVVAATPTSLLISWVPPSDDYGYYRITYGETGGNSPVQEFTVPIGKGTATISGLKPGVDYTITVYAVEFPWPHAGYYHRPISINYRTEIEKPCQ
modifications: pegylated (site and PEG size not stated)
notes: also called pegylated anti-PCSK9 Adnectin
binding (human PCSK9 [1]): binds
binding (human PCSK9 [2]): binds

B2: ATI-1081 (designed binder)
chain: MGVSDVPRDLEVVAATPTSLLISWVPPSDDYGYYRITYGETGGNSPVQEFTVPIGKGTATISGLKPGVDYTITVYAVEFPWPHAGYYHRPISINYRTEIDKPSQHHHHHH
notes: No Fc
binding (human PCSK9 [1]): binds
binding (human PCSK9 [2]): binds

From patent US20210122805A1 (Bristol-Myers Squibb, published 2021)
